Assay results published in PMC9969694, “YULINK regulates vascular formation in zebrafish and HUVECs” (Biological Research, 2023).
No constants are given. Whether binding was seen depends on the method and setting. Binding seen in cells or lysates may run through a third protein. Some results given as binding are weak or reduced against the parent protein; the word gives no strength. Tags and fused reporters may be left off the sequences shown.

By UniProt entry, the sequences of proteins in these tests, tags left out.
UniProt Q9H082: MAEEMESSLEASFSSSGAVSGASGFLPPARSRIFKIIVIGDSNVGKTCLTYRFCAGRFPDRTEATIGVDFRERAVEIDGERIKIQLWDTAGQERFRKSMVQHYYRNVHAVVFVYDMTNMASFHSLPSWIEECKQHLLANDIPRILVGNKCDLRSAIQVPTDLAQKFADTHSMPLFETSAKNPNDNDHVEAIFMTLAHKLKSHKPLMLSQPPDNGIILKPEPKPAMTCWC
UniProt Q86XR7: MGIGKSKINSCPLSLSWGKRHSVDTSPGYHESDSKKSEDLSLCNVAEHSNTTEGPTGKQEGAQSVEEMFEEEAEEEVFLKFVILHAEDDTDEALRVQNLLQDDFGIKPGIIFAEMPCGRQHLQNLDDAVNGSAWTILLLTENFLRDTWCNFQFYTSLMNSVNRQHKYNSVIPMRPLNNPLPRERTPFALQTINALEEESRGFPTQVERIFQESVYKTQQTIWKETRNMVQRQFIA

B1: DsRed-EPS15 (natural protein, human, UniProt P42566 1-896, looked up)
chain: MAAAAQLSLTQLSSGNPVYEKYYRQVDTGNTGRVLASDAAAFLKKSGLPDLILGKIWDLADTDGKGILNKQEFFVALRLVACAQNGLEVSLSSLNLAVPPPRFHDTSSPLLISGTSAAELPWAVKPEDKAKYDAIFDSLSPVNGFLSGDKVKPVLLNSKLPVDILGRVWELSDIDHDGMLDRDEFAVAMFLVYCALEKEPVPMSLPPALVPPSKRKTWVVSPAEKAKYDEIFLKTDKDMDGFVSGLEVREIFLKTGLPSTLLAHIWSLCDTKDCGKLSKDQFALAFHLISQKLIKGIDPPHVLTPEMIPPSDRASLQKNIIGSSPVADFSAIKELDTLNNEIVDLQREKNNVEQDLKEKEDTIKQRTSEVQDLQDEVQRENTNLQKLQAQKQQVQELLDELDEQKAQLEEQLKEVRKKCAEEAQLISSLKAELTSQESQISTYEEELAKAREELSRLQQETAELEESVESGKAQLEPLQQHLQDSQQEISSMQMKLMEMKDLENHNSQLNWCSSPHSILVNGATDYCSLSTSSSETANLNEHVEGQSNLESEPIHQESPARSSPELLPSGVTDENEVTTAVTEKVCSELDNNRHSKEEDPFNVDSSSLTGPVADTNLDFFQSDPFVGSDPFKDDPFGKIDPFGGDPFKGSDPFASDCFFRQSTDPFATSSTDPFSAANNSSITSVETLKHNDPFAPGGTVVAASDSATDPFASVFGNESFGGGFADFSTLSKVNNEDPFRSATSSSVSNVVITKNVFEETSVKSEDEPPALPPKIGTPTRPCPLPPGKRSINKLDSPDPFKLNDPFQPFPGNDSPKEKDPEIFCDPFTSATTTTNKEADPSNFANFSAYPSEEDMIEWAKRESEREEEQRLARLNQQEQEDLELAIALSKSEISEA
notes: EPS15 conjugated with DsRed; also called DsRed-ESP15; source: HEK-293 T, co-transfected, in live cells

target: T1, AcGFP-tagged YULINK (over-expressed in HUVECs) (human) (UniProt Q9NXC5); experiment: co-IP; AcGFP-YULINK over-expressed in HUVECs; lysate in 10 mM Tris/Cl pH 7.5, 150 mM NaCl, 0.5 mM EDTA, 0.5% NP-40; captured on GFP-Trap agarose beads; immunoblot for endogenous partners
T1 sequence: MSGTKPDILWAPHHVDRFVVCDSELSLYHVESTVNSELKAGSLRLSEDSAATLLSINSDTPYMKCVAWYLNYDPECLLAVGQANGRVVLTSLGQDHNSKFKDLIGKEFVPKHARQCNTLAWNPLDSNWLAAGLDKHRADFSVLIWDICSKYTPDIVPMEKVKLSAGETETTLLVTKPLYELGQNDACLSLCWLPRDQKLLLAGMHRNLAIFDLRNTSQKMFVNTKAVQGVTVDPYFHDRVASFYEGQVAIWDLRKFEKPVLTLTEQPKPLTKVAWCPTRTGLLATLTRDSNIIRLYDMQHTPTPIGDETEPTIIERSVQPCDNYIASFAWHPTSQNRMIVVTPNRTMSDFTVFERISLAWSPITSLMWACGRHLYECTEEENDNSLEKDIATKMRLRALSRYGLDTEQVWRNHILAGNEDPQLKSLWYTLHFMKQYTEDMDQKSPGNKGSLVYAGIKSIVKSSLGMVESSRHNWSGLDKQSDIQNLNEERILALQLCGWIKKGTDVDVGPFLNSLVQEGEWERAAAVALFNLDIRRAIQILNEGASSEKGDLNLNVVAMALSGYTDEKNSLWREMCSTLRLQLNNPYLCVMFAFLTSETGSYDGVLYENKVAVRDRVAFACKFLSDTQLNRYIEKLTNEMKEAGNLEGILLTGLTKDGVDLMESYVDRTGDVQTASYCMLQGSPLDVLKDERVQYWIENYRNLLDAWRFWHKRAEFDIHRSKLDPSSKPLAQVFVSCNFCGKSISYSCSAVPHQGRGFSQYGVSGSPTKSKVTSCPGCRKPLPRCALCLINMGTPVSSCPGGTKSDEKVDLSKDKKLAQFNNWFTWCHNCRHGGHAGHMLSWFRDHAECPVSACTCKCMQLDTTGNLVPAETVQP

binding, binds:
RAB33B (endogenous, HUVECs) (from UniProt Q9H082 1-229)
TICAM2 (endogenous, HUVECs) (from UniProt Q86XR7 1-235)
B1
